Measured values: patent EP3964206A1, “COMPOUNDS FOR THE TREATMENT OF COVID-19” (priority 2020, dated 2022)
Structures can show the parent of a compound that is named as a salt.

Test system: SARS-CoV-2
Test: microbe, parasite or virus in culture
Format: cell-based
Conditions: Severe acute respiratory syndrome coronavirus 2, 120 h

| Compound | IC50 [µM] |
| --- | --- |
| CN(C)C(=O)C(CCN1CCC(O)(c2ccc(Cl)cc2)CC1)(c1ccccc1)c1ccccc1 [Compound 110, 4-[4-(4-Chlorophenyl)-4-hydroxypiperidin-1-yl]-N,N-dimethyl-2,2-diphenylbutyramide hydrochloride] | 17.2 |
| CCN(CC)CCOc1ccc(C(=C(Cl)c2ccccc2)c2ccccc2)cc1 [Compound 82, 2-[4-(2-Chloro-1,2-diphenylvinyl)phenoxy]-N,N-diethylethanamine citrate] | 13.6 |
